Experimental data taken from PMC12095548.
No constants are given. Whether binding was seen depends on the method and setting. For part of these data: In cells and extracts the contact can be indirect. Some binding calls cover weakened binding; strength is not graded here. For part of these data: Sequences can lack the tags named with a protein.

By UniProt entry, the sequences of proteins in these tests, tags left out. Where a name states a change or a piece, a line headed by the entry shows the natural chain unless it says otherwise. Residues count along the entry.
UniProt P25586: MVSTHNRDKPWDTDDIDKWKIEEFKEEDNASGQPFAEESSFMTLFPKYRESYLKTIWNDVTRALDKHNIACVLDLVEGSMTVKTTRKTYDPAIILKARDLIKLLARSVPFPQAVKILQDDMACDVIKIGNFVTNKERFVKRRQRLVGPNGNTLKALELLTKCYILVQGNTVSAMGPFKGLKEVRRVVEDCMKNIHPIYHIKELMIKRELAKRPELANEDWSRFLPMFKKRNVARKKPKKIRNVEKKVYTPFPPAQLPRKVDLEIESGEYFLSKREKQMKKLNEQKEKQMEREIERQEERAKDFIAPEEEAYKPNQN
Krr1ΔC3-FLAG (Saccharomyces cerevisiae (yeast)): residues 1-247 of P25586
UniProt P05756: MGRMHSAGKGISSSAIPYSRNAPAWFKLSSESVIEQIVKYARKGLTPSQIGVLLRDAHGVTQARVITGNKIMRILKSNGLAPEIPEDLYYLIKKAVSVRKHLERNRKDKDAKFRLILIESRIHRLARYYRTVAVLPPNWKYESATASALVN

Key:
[1] = target: T1, Kri1 (Saccharomyces cerevisiae (endogenous in yeast cells)) (UniProt P42846); assay: cryo-EM structure; snR30 snoRNP purified from yeast via Utp23-Krr1ΔC3 split baits; State 1 at 2.89 Å
T1 sequence: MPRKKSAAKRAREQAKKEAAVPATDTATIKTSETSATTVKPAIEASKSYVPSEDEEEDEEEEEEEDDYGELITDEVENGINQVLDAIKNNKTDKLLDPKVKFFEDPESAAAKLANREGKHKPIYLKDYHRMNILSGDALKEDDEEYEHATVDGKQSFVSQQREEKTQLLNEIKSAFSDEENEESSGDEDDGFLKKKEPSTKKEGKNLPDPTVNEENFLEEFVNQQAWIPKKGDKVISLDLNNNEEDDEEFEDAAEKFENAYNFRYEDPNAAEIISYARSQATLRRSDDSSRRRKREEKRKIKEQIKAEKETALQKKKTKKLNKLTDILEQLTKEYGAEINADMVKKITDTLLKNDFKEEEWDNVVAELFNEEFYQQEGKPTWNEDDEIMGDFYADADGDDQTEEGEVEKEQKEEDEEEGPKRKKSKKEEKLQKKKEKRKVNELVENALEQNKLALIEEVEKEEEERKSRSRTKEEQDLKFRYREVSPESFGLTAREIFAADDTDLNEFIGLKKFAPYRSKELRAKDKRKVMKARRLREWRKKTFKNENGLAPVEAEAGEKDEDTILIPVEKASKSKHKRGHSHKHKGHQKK

[2] = target: T1, Kri1 (Saccharomyces cerevisiae (endogenous in yeast cells)); assay: cryo-EM structure; snR30 snoRNP purified from yeast via wild-type Utp23-Krr1 split baits; two classes at 3.92 and 3.93 Å, maps only
[3] = target: T2, protA-TEV-tagged Utp23 (Saccharomyces cerevisiae (yeast)) (UniProt Q12339); assay: co-sedimentation; FLAG eluates of the split-tag purifications on a linear 10–40% sucrose gradient (60 mM Tris-HCl pH 8.0, 50 mM NaCl, 2 mM MgCl2), 16 h at 129,300 × g, 4 °C; fractions by SDS-PAGE, MS and northern blot
T2 sequence: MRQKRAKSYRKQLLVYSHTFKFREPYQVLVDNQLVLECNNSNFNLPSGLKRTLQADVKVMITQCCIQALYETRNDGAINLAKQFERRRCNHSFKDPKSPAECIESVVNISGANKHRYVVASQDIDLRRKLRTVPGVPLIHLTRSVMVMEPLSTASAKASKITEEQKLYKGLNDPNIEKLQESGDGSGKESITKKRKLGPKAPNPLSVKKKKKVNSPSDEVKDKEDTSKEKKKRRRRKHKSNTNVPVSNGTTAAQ

[4] = target: T3, Cbf5 (Saccharomyces cerevisiae (endogenous in yeast cells)) (UniProt P33322); assay: cryo-EM structure; snR30 snoRNP purified from yeast via wild-type Utp23-Krr1 split baits; two classes at 3.92 and 3.93 Å, maps only
T3 sequence: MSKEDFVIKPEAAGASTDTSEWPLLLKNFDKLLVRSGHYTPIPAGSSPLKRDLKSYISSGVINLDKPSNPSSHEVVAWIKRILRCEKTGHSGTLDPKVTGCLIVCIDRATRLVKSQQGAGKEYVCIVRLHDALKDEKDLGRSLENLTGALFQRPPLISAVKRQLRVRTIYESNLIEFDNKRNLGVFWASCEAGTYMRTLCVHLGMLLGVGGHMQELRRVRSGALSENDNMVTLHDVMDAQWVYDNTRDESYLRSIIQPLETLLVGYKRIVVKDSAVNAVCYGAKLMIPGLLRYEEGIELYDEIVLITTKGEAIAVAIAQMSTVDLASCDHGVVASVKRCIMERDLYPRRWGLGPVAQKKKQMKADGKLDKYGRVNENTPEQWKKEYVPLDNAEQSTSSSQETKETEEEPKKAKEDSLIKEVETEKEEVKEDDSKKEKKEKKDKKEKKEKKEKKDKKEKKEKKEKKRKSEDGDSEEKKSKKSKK

[5] = target: Krr1 (wild type, second bait of the split-tag purification) (Saccharomyces cerevisiae (yeast)) (UniProt P25586); assay: co-sedimentation; FLAG eluates of the split-tag purifications on a linear 10–40% sucrose gradient (60 mM Tris-HCl pH 8.0, 50 mM NaCl, 2 mM MgCl2), 16 h at 129,300 × g, 4 °C; fractions by SDS-PAGE, MS and northern blot
[6] = target: Krr1ΔC3-FLAG (Saccharomyces cerevisiae (yeast)) (UniProt P25586); assay: as above
[7] = target: T4, Gar1 (Saccharomyces cerevisiae (endogenous in yeast cells)) (UniProt P28007); assay: cryo-EM structure; snR30 snoRNP purified from yeast via Utp23-Krr1ΔC3 split baits; State 1 at 2.89 Å
T4 sequence: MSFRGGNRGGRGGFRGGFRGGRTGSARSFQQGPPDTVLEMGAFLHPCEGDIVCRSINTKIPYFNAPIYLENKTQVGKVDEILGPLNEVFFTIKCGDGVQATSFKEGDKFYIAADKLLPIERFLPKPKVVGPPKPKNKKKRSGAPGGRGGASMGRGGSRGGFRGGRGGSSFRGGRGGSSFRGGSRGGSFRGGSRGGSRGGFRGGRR

[8] = target: T2, protA-TEV-tagged Utp23 (Saccharomyces cerevisiae (yeast)); assay: as above
[9] = target: T4, Gar1 (Saccharomyces cerevisiae (endogenous in yeast cells)); assay: cryo-EM structure; snR30 snoRNP purified from yeast via wild-type Utp23-Krr1 split baits; two classes at 3.92 and 3.93 Å, maps only
[10] = target: T2, protA-TEV-tagged Utp23 (Saccharomyces cerevisiae (yeast)); assay: as above

Measured: binding

uS15 (Rps13) (from UniProt P05756 1-151)
binds: [1] | [2] | [3]

Cbf5 (from UniProt P33322 1-483) (enzyme)
binds: [4] | [5] | [6] | [3]

B1: Kri1 (protein, UniProt P42846 1-591)
chain: MPRKKSAAKRAREQAKKEAAVPATDTATIKTSETSATTVKPAIEASKSYVPSEDEEEDEEEEEEEDDYGELITDEVENGINQVLDAIKNNKTDKLLDPKVKFFEDPESAAAKLANREGKHKPIYLKDYHRMNILSGDALKEDDEEYEHATVDGKQSFVSQQREEKTQLLNEIKSAFSDEENEESSGDEDDGFLKKKEPSTKKEGKNLPDPTVNEENFLEEFVNQQAWIPKKGDKVISLDLNNNEEDDEEFEDAAEKFENAYNFRYEDPNAAEIISYARSQATLRRSDDSSRRRKREEKRKIKEQIKAEKETALQKKKTKKLNKLTDILEQLTKEYGAEINADMVKKITDTLLKNDFKEEEWDNVVAELFNEEFYQQEGKPTWNEDDEIMGDFYADADGDDQTEEGEVEKEQKEEDEEEGPKRKKSKKEEKLQKKKEKRKVNELVENALEQNKLALIEEVEKEEEERKSRSRTKEEQDLKFRYREVSPESFGLTAREIFAADDTDLNEFIGLKKFAPYRSKELRAKDKRKVMKARRLREWRKKTFKNENGLAPVEAEAGEKDEDTILIPVEKASKSKHKRGHSHKHKGHQKK
binds: [7] | [8] | [9] | [10] | [3]
